# Results deposited as PubChem BioAssay AID1671195 (Yale University, 2021).
# Test: 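Knockdowns that increase or decrease uptake of fluorescent LDL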 (primary screen)
# System: human Huh7 hepatoma cells
# Knock-down reagent: siRNA pool against human genes, 18 nM
# Time to read-out: about 2 to 2.5 days of knockdown, then 8 h LDL uptake
# Treatment: DiI-labelled LDL at 30 µg/ml for 8 h, in lipoprotein-deficient serum medium
# Read-out: 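Fluorescent LDL signal imaged in cells, scaled to the plate median, robust z-score for each replicate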
# Direction: robust z-score: higher = more LDL uptake after knockdown
# Rule for the call: 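a gene counts as active if at least two replicate z-scores exceed ±2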
# This is one part, drawn at random, of about 22,000 reagents. About 1,510 of them (6.9%) count as active. 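Active includes knockdowns raising or lowering LDL uptake; positive z-scores mean more uptake, negative mean less.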
target gene,"robust z-score, replicate 1","robust z-score, replicate 2","robust z-score, replicate 3",Outcome
ERVV-1,-0.99,-0.651,-0.615,inactive
SIGLEC9,0.553,0.35,0.965,inactive
PCDHB7,-0.955,-0.883,-0.889,inactive
LOC440785 (retired record),-0.76,-0.597,-1.11,inactive
C22orf39,-0.252,-0.282,-1.22,inactive
MARCHF10,-0.2,-1.43,-1.38,inactive
SCAF11,0.539,-0.401,0.212,inactive
B3GNT2,-1.48,-0.0348,-1.69,inactive
ADCY7,-0.391,-0.135,-0.713,inactive
SLC39A7,0.284,0.253,-0.028,inactive
LINC01060,-0.118,0.0954,-0.123,inactive
CCND2,0.0117,-0.061,0.0896,inactive
PGGHG,-0.857,-0.77,-1.06,inactive
TAS2R9,0.262,-0.168,0.979,inactive
LOC440037 (retired record),-0.291,0.0423,-0.485,inactive
CRISP3,0.491,0.8,1.78,inactive
MDH1B,-0.0326,0.0485,0.386,inactive
DOLK,1.41,-0.0398,1.21,inactive
RELN,0.798,0.36,0.15,inactive
TUBG2,-0.213,-0.196,-0.273,inactive
ARL1,1.11,0.803,0.677,inactive
CENPE,2.62,1.4,3.9,inactive
DUX4L1,-0.333,0.842,0.169,inactive
AHR,1.84,1.72,3.08,inactive
SAMD9L,-0.57,-0.863,-0.592,inactive
PLPPR1,0.557,-0.208,1.04,inactive
L1CAM,3.98,2.2,3.98,active
CCDC9B,1.13,1.1,0.19,inactive
SAMD12,0.613,0.418,0.465,inactive
FBLIM1P2,-0.232,-0.623,-0.36,inactive
PMPCB,-1.49,-1.1,-1.73,inactive
THUMPD3-AS1,1.1,1.17,1.34,inactive
AP2A2,-0.354,-0.317,0.151,inactive
AGAP4,0.374,0.632,0.459,inactive
C1QBP,1.21,1.58,1.67,inactive
SNX11,-0.786,-0.885,-0.78,inactive
LOC389237 (retired record),0.928,0.44,0.908,inactive
LOC400216 (retired record),1.66,0.992,1.26,inactive
GALC,-1.96,-2.25,-1.85,active
DBN1,0.764,-1.29,0.0801,inactive
RPL22P13,0.0326,-0.124,0.297,inactive
NPLOC4,-0.545,-1.13,-0.744,inactive
MROH1,2.04,1.71,1.46,inactive
RPL28P4,-1.14,-1.51,-1.2,inactive
ZNF512B,-1.64,-1.51,-1.26,inactive
RHOXF2,2.85,2.24,2.22,active

Reformatted: entries from further up.
PGGHG
- robust z-score, replicate 1: -0.857
- robust z-score, replicate 2: -0.77
- robust z-score, replicate 3: -1.06
- Outcome: inactive

TAS2R9
- robust z-score, replicate 1: 0.262
- robust z-score, replicate 2: -0.168
- robust z-score, replicate 3: 0.979
- Outcome: inactive

LOC440037 (retired record)
- robust z-score, replicate 1: -0.291
- robust z-score, replicate 2: 0.0423
- robust z-score, replicate 3: -0.485
- Outcome: inactive

CRISP3
- robust z-score, replicate 1: 0.491
- robust z-score, replicate 2: 0.8
- robust z-score, replicate 3: 1.78
- Outcome: inactive

MDH1B
- robust z-score, replicate 1: -0.0326
- robust z-score, replicate 2: 0.0485
- robust z-score, replicate 3: 0.386
- Outcome: inactive

DOLK
- robust z-score, replicate 1: 1.41
- robust z-score, replicate 2: -0.0398
- robust z-score, replicate 3: 1.21
- Outcome: inactive
